# PubChem BioAssay AID493014 (National Center for Advancing Translational Sciences (NCATS), 2011)
# This is one part of the list. Shown are side measurements of this screen, not its main read-out; they come without a call. Compounds called inactive in the main read-out are mostly missing here. Potencies come from curve fits of mixed quality, noted in brackets.
# Assay: qHTS Assay to Find Inhibitors of Chronic Active B-Cell Receptor Signaling
# Conditions: ABC-DLBCL IkBa-CBG/CBR reporter, luminescence ratio (green luciferase fused to IkBa over red control in TMD8 lymphoma cells), 4 h
# How it was run: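 TMD8 human ABC-DLBCL cells with doxycycline-inducible IκBα–green luciferase fusion and unfused red luciferase, in 0.5% FBS medium; compounds up to 46 uM, 4 h at 37C. Green/red luminescence ratio, filter-overlap corrected, fitted to concentration-response curves.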
# [1] = measured here: CBR red luminescence, cell number
# [2] = measured here: IkBa-CBG green luminescence
Compound,AC50 [1],AC50 [2]
CCCc1nc2oc3c(NCC4CCCO4)ncnc3c2c2c1COC(C)(C)C2 (stereo unspecified),"6.31 µM [rising, partial curve, poor fit]",
c1ccc(N(c2ccccc2)c2nc(N3CCOCC3)nc(N3CCOCC3)n2)cc1,"4.47 µM [rising, full curve, poor fit]",
O=C(CC1CCCCC1)NC1CCCC1,"20.6 µM [rising, partial curve, poor fit]",
CC(=O)Nc1ccc(C(=O)COC(=O)c2ccco2)c(F)c1,"32.6 µM [rising, single point]",
CCCc1cc(=O)[nH]c(SCCOc2ccc(OCC)cc2)n1,"23.1 µM [rising, single point]",
O=C(/C=C/c1ccc(Cl)c(Cl)c1)NCc1ccco1,"6.51 µM [rising, partial curve, poor fit]",
CCC(C)Nc1nc(Cl)nc(N(C#N)CN2C(=O)c3ccccc3S2(=O)=O)n1 (stereo unspecified),"8.91 µM [rising, partial curve, poor fit]",
COc1cc(C(=O)Nc2cc(-c3cn4cccnc4n3)ccc2C)cc(OC)c1OC,"28.2 µM [rising, single point]",
Cc1ccc(OC(=O)c2oc3ccc(F)cc3c2C)c(C)c1,"35.5 µM [rising, single point]",
O=C(Nc1ncccn1)c1cccs1,"15.8 µM [falling, single point]",
CCOC(=O)CN1C(=O)C2(OCCCO2)c2ccccc21,"29.1 µM [rising, partial curve, poor fit]",
Cc1ncsc1C(=O)Nc1nc2c(s1)CCCC2,"6.31 µM [falling, partial curve]",
CC(C)(C)c1ccc(S(=O)(=O)N2CCN(CC(=O)NC(=O)NC3CCCCC3)CC2)cc1,"7.31 µM [rising, partial curve, poor fit]",
COc1ccc(NC(=S)c2ccc3ccccc3n2)cc1,"20 µM [rising, single point]",
Cc1cc(/C=C\c2ccccc2)nc2ccccc12,"0.355 µM [rising, full curve, poor fit]",
Cc1ccc(-c2nn(-c3ccccc3)cc2C=O)o1,"1.41 µM [rising, partial curve, poor fit]",
Cc1cccc(NC(=O)Cc2coc3ccc4ccccc4c23)n1,"23.1 µM [falling, partial curve, poor fit]",
Cc1c(/C(O)=C2/C(=O)C(=O)N(CCN3CCOCC3)C2c2ccccn2)cnn1-c1ccccc1 (stereo unspecified),"4.47 µM [rising, full curve]",
Cc1ccc(Cl)cc1NC(=O)c1sc2nc(-c3ccccc3)cn2c1C,"0.631 µM [rising, full curve, poor fit]",
OCC#CCSc1nnc(-c2cccc3ccccc23)o1,"13 µM [rising, partial curve]",
CCOC(=O)c1ccc(NC(=O)c2cn(CCC#N)nc2-c2ccc3c(c2)OCCO3)cc1,"20.6 µM [falling, single point]",

# Three neighbouring compounds from above:
Compound,AC50 [1],AC50 [2]
O=C(Nc1ncccn1)c1cccs1,"15.8 µM [falling, single point]",
CCOC(=O)CN1C(=O)C2(OCCCO2)c2ccccc21,"29.1 µM [rising, partial curve, poor fit]",
Cc1ncsc1C(=O)Nc1nc2c(s1)CCCC2,"6.31 µM [falling, partial curve]",

# (further entries)

Compound,AC50 [1],AC50 [2]
Cc1cc2c(=O)n(Cc3ccco3)c(SCC(=O)N3CCCc4ccccc43)nc2s1,"20.6 µM [falling, single point]","16.4 µM [rising, partial curve, poor fit]"
Cc1ccc(NC(=O)c2cc(NC(=O)c3ccco3)ccc2N2CCCCC2)cc1,"1.12 µM [falling, full curve]",
O=C(Nc1nnc(SCc2ccccn2)s1)C1CC(=O)N(c2ccc(F)cc2)C1 (stereo unspecified),"20 µM [falling, single point]",
COc1ccc(NC(C)=O)cc1S(=O)(=O)NC(C)c1ccc(-n2ccnc2)cc1 (stereo unspecified),"29.1 µM [rising, single point]",
Cc1ccc(C(=O)Nc2ncc3c(Cl)cccc3n2)cc1,"8.91 µM [falling, partial curve, poor fit]",
O=C(NC(=S)NCc1ccccc1)c1cccs1,"3.16 µM [rising, partial curve, poor fit]",
Cc1cc(C)c(S(=O)(=O)N2CCC(C(=O)OCc3c(C)noc3C)CC2)c(C)c1,"1.64 µM [rising, full curve, poor fit]",
CC(C)CN(C(=O)c1ccc(=O)n(C)n1)c1nc2ccccc2s1,"0.291 µM [rising, full curve, poor fit]",
O=C(N/N=C/c1ccc2c(c1)OCO2)c1cc(-c2ccco2)nc2ccccc12,"29.1 µM [rising, single point]",
CCN(CC)S(=O)(=O)c1cccc(NC(=O)c2ccc(Br)cc2)c1,"8.91 µM [falling, partial curve]",
O=C(O)c1ccccc1NS(=O)(=O)c1ccc2c3c(cccc13)C(=O)N2,"2.51 µM [falling, partial curve, poor fit]",
COc1ccc2[nH]c(C)c(CCN(Cc3cccs3)C(=S)Nc3ccc(F)cc3)c2c1,"18.4 µM [falling, single point]",
Cc1csc(NC(=O)CSc2nc(=O)cc(N)n2-c2ccc(F)cc2)n1,"10 µM [falling, partial curve, poor fit]",
C=CCNC(=O)c1onc(CSc2ccccc2F)c1C(=O)O,"10 µM [falling, partial curve]",
CCCCCCOC1(c2ccccc2)OC(=O)c2ccccc21 (stereo unspecified),"17.8 µM [rising, single point]",
COc1ccc2[nH]c3c(c2c1)CCN1C(=O)C(CC(=O)NC(C)(C)C)C[C@H](C(=O)N2CCOCC2)[C@@]31CCC1CCCC1 (stereo partly specified),"32.6 µM [falling, single point]",
Fc1ccc(NCc2nnc(SCc3nnc(-c4ccccc4)o3)n2CC2CCCO2)cc1 (stereo unspecified),"6.51 µM [rising, single point]",
CCOc1ccc(NC(=S)/C(=C(\[O-])c2ccc(C)c([N+](=O)[O-])c2)[n+]2ccccc2)cc1,"29.1 µM [rising, single point]",
Cc1cccc(-n2nnc(C(=O)N3CCc4ccccc4C3)c2N)c1,"5.01 µM [falling, full curve, poor fit]",
CCNC(=S)N(CCc1c(C)[nH]c2ccc(C)cc12)Cc1cc(OC)c(OC)c(OC)c1,"2.06 µM [rising, partial curve, poor fit]",
O=C1C(Cl)=C(NS(=O)(=O)c2ccc([N+](=O)[O-])cc2)C(=O)c2ccccc21,"5.62 µM [falling, partial curve]",

Compound,AC50 [1],AC50 [2]
COC(=O)c1ccc(CNC(=O)COC(=O)/C=C/c2ccc(OC)c(OC)c2)cc1,"0.164 µM [rising, partial curve, poor fit]",
COc1ccc(C(=O)N/N=C/c2ccc(OC(=O)c3cccc4ccccc34)c([N+](=O)[O-])c2)cc1,"14.6 µM [falling, partial curve]","20.6 µM [rising, partial curve]"
COCCn1nnnc1C(c1ccc(OC)cc1OC)N1CCN(c2ccccc2)CC1 (stereo unspecified),"0.00461 µM [rising, full curve, poor fit]",
Cc1cc(C(=O)N/N=C/c2ccc(-c3ccc(C)c(Cl)c3)o2)n[nH]1,"5.62 µM [rising, single point]",
CCc1cc2c(=O)[nH]c(-c3ccccn3)nc2s1,"13 µM [falling, partial curve, poor fit]","3.66 µM [falling, full curve]"
Cc1ccc(C(=O)Nc2sc(Cc3ccc4c(c3)OCO4)c(C)c2C(N)=O)cc1,"20.6 µM [rising, single point]","29.1 µM [falling, single point]"
COc1ccc(C(=O)NC2CCN(C(=O)NC3CCCCC3)CC2)cc1,"6.31 µM [rising, single point]",
COc1ccccc1NC(=O)N(Cc1ccco1)Cc1cc2cccc(C)c2[nH]c1=O,"8.2 µM [falling, partial curve, poor fit]",
COc1cc(C2c3c(n[nH]c3C)C(=O)N2c2ccc(C)cc2)ccc1O (stereo unspecified),"22.4 µM [falling, single point]",
COc1ccc(/C=N/NC(=O)c2cccnc2)cc1O,"14.1 µM [falling, partial curve, poor fit]",
CCOC(=O)Nc1nnc(-c2ccc(OC)cc2)s1,"0.259 µM [rising, full curve, poor fit]",
COc1ccc(C(=O)/C=C/c2cccc(OCc3ccccc3)c2)cc1CSCC(=O)O,"1 µM [falling, full curve]",
O=[N+]([O-])c1ccccc1S(=O)(=O)N1CCN(c2ccccc2)CC1,"14.1 µM [rising, partial curve, poor fit]",
Cc1ccc(N2CC(c3nc4ccccc4[nH]3)CC2=O)c(C)c1 (stereo unspecified),"29.1 µM [rising, single point]",
O=C(O)CSc1nnc(CNc2cccc(C(F)(F)F)c2)n1Cc1ccco1,"22.4 µM [falling, single point]",
COc1ccc(/C=N/NC(=O)c2ccc(Cl)cc2)cc1Cn1cc(Cl)cn1,"0.92 µM [falling, full curve]",
Cc1c(-c2cccc(Cl)c2)nc2ccccc2c1C(=O)NC1CC1,"35.5 µM [falling, single point]",
Cc1ccc(-c2nc(CSCC(=O)NC3CCN(Cc4ccccc4)CC3)c(C)o2)cc1,"6.31 µM [falling, partial curve, poor fit]",
C=CCn1cnc2c(oc3ccccc32)c1=O,"5.62 µM [rising, single point]",
Cc1cccc(C)c1OCC(=O)Nc1cccc(-c2nnc(-c3ccccc3)o2)c1,"7.08 µM [rising, partial curve, poor fit]",
